Results: patent US20060127371A1

Molecular target: myc-tagged zebrafish Nrarp (zebrafish)
Assay: co-immunoprecipitation from co-transfected HEK-293 cells (summing-up sentence)

B1: HA-tagged Asb-a (zebrafish Asb-a, full length) (protein, not shown: small tags and cut ends)
chain: MAVVHAEGNVWIKQWDHRFHMYGGQTCSPLMAGSWDDRTPLHDAALQGRLLPLRRLLSQGYNVGMATLDGITALHEACVGGHFTCAKLLLEHGADANAVTFDGATPLFSACCSGNPALVSLILTHSSAHHPAHLLCSPLHEAAKRGHTACVELLLSHGVNVDMELPSVGTALYCACEVKSTDCVLTLLILGADVQCGRGLDTPLHAACRVGGAKEAELLLEHGADRTSRNSEGKTPLDLTSDQSIKHLLQTAGTCSLSQLCRWCIRRSLGQKGLNKTKTLCLPHMLHNYLLYH
  binding: binds

These are yes or no findings as the source states them, for the method shown. In cells and extracts the contact can be indirect. Binding can be weak; no strength is given. Sequences can lack the tags named with a protein.
